Measurements as given in PubChem BioAssay AID2549 (National Center for Advancing Translational Sciences (NCATS), 2010).
About 1,300 (0.54%) of roughly 240,000 compounds were called active. Inconclusive means that the source gave no clear call. Such entries were picked first, then a sample of the others. The call rests on the fitted dose curve; in most records, active means well fitted inhibition curve with a large enough effect; inconclusive means small, poorly fitted or top-dose-only effect; inactive means flat fitted curve, though single readings scatter. Potencies beside an inconclusive call are fits to weak or partial responses and may not hold up.
Further: nearly all actives have a fitted effect of over 30% in size.
Potency means the concentration at half of the fitted maximal effect.
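Wherever activity, negative = inhibition is given: plate controls were vehicle for no effect and no enzyme for full effect.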

The chains behind the UniProt entries cited, without tags or fusion partners. Where a name states a change or a piece, a line headed by the entry shows the natural chain unless it says otherwise.
UniProt P46063: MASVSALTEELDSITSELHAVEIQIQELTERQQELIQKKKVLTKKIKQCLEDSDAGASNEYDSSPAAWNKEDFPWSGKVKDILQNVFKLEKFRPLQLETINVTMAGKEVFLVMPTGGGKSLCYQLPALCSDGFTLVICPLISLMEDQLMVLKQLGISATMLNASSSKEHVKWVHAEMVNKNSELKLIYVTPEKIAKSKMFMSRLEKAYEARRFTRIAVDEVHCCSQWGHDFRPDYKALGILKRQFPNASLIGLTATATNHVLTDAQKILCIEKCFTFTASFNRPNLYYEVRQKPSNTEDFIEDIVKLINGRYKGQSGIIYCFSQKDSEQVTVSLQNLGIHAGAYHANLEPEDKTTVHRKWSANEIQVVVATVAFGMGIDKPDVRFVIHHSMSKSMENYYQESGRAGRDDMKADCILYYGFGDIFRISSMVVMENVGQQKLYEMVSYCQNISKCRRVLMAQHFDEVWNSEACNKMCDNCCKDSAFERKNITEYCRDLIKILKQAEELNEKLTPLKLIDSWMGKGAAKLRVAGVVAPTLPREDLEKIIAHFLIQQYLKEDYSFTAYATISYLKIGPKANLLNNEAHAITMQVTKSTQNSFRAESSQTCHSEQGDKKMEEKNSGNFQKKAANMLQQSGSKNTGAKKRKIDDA

These compounds were tested against ATP-dependent DNA helicase Q1 (Homo sapiens) (UniProt P46063) (assay: qHTS Assay for Inhibitors of RecQ-Like Dna Helicase 1 (RECQ1)). Conditions: RECQ1 DNA unwinding, red fluorescence kinetic read; activity, negative = inhibition: at 57.3 µM (top of the series); series mostly up to 57.3 µM.
Procedure, shortened: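 RECQ1T1 50 nM; forked duplex (20 bp + 30-nt ss tails) 200 nM, ATP 2 mM final; pH 8.0, 2 mM MgCl2, 2.5 ug/ml poly(dI-dC); 15 min compound preincubation; discontinuous kinetic read over 2 h at RT.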
In the case of `COc1cccc([C@@H]2Oc3ccc(OC)cc3C(=O)[C@H]2OC(=O)NC2CCCC2)c1`, the “outcome” value is reported as “inactive”. `C=C(C(C)=O)C(O)/C=C/c1ccco1` (stereo unspecified) was tested, and the Potency was inconclusive: 35.5 µM [inhibitor, partial curve]. With `O=C(Cc1cccs1)Nc1ccc(S(=O)(=O)N2CCCCC2)cc1` the Potency was active: 25.1 µM. In the case of `O=C(NNC(=O)C1[C@H]2CCCC[C@@H]12)Nc1cccc2ccccc12` (stereo partly specified), the “outcome” value is reported as “inactive”. In the case of `CCCCn1c(=O)[nH]c2nc3cc(NC(C)=O)ccc3nc2c1=O`, the “activity, negative = inhibition” value is reported as inactive: -7.5%. `O=C(CN1CCN(c2ccc(O)cc2)CC1)Nc1cc(S(=O)(=O)N2CCCC2)ccc1Cl` was tested, and the Potency was active: 12.6 µM. For `COCc1cc(C)nc(OCC(=O)N/N=C/c2cccc(OC)c2)c1C#N`, the “activity, negative = inhibition” value was inactive: 2.27%. In the case of `CNC(=O)c1ccsc1NC(=O)c1sc2ccccc2c1Cl`, the Potency is reported as inconclusive: 31.6 µM [inhibitor, single point]. In the case of `CC1(O)C(=O)C=C2C=C(c3ccsc3)OC=C2C1=O` (stereo unspecified), the “activity, negative = inhibition” value is reported as inactive: -7.81%. For `COc1ccc(C(=O)/C=C/c2ccc(F)cc2)c(OC(=O)c2ccc([N+](=O)[O-])cc2)c1`, the Potency was inconclusive: 3.16 µM [inhibitor, partial curve]. `Cc1cc(C)c2c(=O)n(CC(=O)N3CCC(Cc4ccccc4)CC3)sc2n1` was tested, and the “activity, negative = inhibition” value was inactive: 7.59%. With `C/C=C/C=C\C(=O)Nc1cccc(C2=NOC3(C2)C[C@H](C(N)=O)N(C(=O)CC#N)C3)c1` (stereo partly specified) the Potency was inconclusive: 35.5 µM [inhibitor, single point]. With `C/C(CC(=O)N(C(C)C)C(C)C)=N\NC(=O)COc1ccc(Cl)cc1Cl` the Potency was inconclusive: 0.891 µM [inhibitor, partial curve, poor fit]. For `c1ccc(-c2ncc3c(ccc4ccccc43)n2)cc1`, the Potency was inconclusive: 0.562 µM [inhibitor, full curve]. In the case of `COC(=O)c1ccc(CC(=O)c2c(C)cc(O)cc2O)o1`, the Potency is reported as inconclusive: 39.8 µM [inhibitor, single point]. For `Cc1ccc(NC(=O)CN2C(=O)S/C(=C\c3ccc(-c4cccc(C(=O)O)c4C)o3)C2=O)cc1`, the Potency was inconclusive: 31.6 µM [inhibitor, single point]. In the case of `Cc1ccc(Cn2c(=S)[nH]c3ccc(N4CCOCC4)cc3c2=O)o1`, the Potency is reported as active: 17.8 µM. `CCCNS(=O)(=O)c1ccc(C(=O)NCC2CCCO2)cc1` (stereo unspecified) was tested, and the Potency was inconclusive: 39.8 µM [inhibitor, single point]. With `Cc1ccc(S(=O)(=O)Cc2ccc(C(=O)O)o2)cc1` the Potency was active: 8.91 µM. `CC(C)(C)c1ccc(-c2nnc(SCCC#N)n2C2CCCC2)cc1` was tested, and the Potency was active: 14.1 µM. With `COc1cc2c(cc1NC(=O)C(C)OC(=O)c1ccc(S(=O)(=O)Nc3ccccc3Cl)cc1)oc1ccccc12` (stereo unspecified) the “outcome” value was “inactive”. In the case of `CCOC(=O)c1cccc(N2C(=O)Nc3ccccc3N2O)c1`, the “activity, negative = inhibition” value is reported as inactive: 5.14%. `COCCCn1c(=O)/c(=C\c2ccccc2OC(F)F)s/c1=C(/C#N)C(=O)NC(C)C` was tested, and the Potency was inconclusive: 35.5 µM [inhibitor, single point]. `COc1cc(/C=C2/C(=O)c3cccc([N+](=O)[O-])c3C2=O)c(Br)cc1O` was tested, and the Potency was active: 25.1 µM. With `C[C@H](NC(=O)c1nc[nH]c1C(=O)N1CCc2ccccc2C1)C(=O)OCc1ccccc1` the Potency was inconclusive: 0.0794 µM [inhibitor, partial curve, poor fit]. For `CCC(C)NC(=O)CCS(=O)(=O)c1ccc2c(c1)n(C)c(=O)c(=O)n2C` (stereo unspecified), the Potency was inconclusive: 3.55 µM [inhibitor, partial curve]. With `COc1cc(C/C=C\c2ccccc2)c(OC)cc1O` the Potency was inconclusive: 39.8 µM [inhibitor, single point]. With `Clc1ccc(C(c2ccccc2Cl)C(Cl)Cl)cc1` (stereo unspecified) the Potency was “inactive”. For `CN(C)c1ccc(C(=C2C=CC(=[N+](C)C)C=C2)c2ccccc2)cc1`, the Potency was inconclusive: 39.8 µM [inhibitor, single point]. With `COc1ccc(N2Cc3cccc(C(=O)NC(C)CCc4ccco4)c3C2=O)cc1` (stereo unspecified) the Potency was active: 7.94 µM. In the case of `CCOC(=O)Cn1c(=NC(=O)CSC(C)=O)sc2ccccc21`, the Potency is reported as inconclusive: 3.55 µM [inhibitor, single point]. For `CCOC(=O)c1sc2ncnc(NCc3ccco3)c2c1C`, the Potency was inconclusive: 39.8 µM [inhibitor, single point]. `CCOC(=O)C(C(=O)c1ccccc1)[C@H](CCc1ccccc1)NC(=O)OC` (stereo partly specified) was tested, and the “outcome” value was “inactive”. For `N#C/C(=C/c1ccccc1)c1nn(CCO)c(N)c1C#N`, the “activity, negative = inhibition” value was inactive: -3.19%. `COc1ccc(Br)cc1C1NC(=O)NC(C)=C1C(=O)N(C)C` (stereo unspecified) was tested, and the Potency was inconclusive: 0.316 µM [inhibitor, full curve, poor fit]. `COc1ccc(N=C2NC(=O)/C(=C\C=C\c3ccco3)S2)cc1` was tested, and the Potency was inconclusive: 20 µM [inhibitor, single point]. For `COC(=O)C(C(=O)OC)C1O[C@@]23COCCC2(C)C3c2ccccc21` (stereo partly specified), the outcome was “inactive [at 11.5 µM]”. With `C#CCOCCOCCOCCNc1nc(N2CCN(C(=O)[C@H](CCC(=O)O)n3cc(C(N)CC(C)C)nn3)CC2)nc(N2CCN(C(=O)[C@H](Cc3ccc(O)cc3)n3cc(C(N)[C@H](C)CC)nn3)CC2)n1` (stereo partly specified) the Potency was inconclusive: 0.251 µM [inhibitor, full curve]. For `O=[N+]([O-])c1ccc(N/N=C/c2ccc(O)c(O)c2O)c(S(=O)(=O)N2CCOCC2)c1`, the Potency was inconclusive: 2.82 µM [inhibitor, full curve]. In the case of `CCN1/C(=C2\OC(=S)N(C)C2=O)C=Cc2ccccc21`, the Potency is reported as inconclusive: 14.1 µM [inhibitor, partial curve]. In the case of `C#CCOCCOCCOCCNc1nc(N2CCN(C(=O)C(Cc3cc4ccccc4[nH]3)n3cc(C(N)C(C)CC)nn3)CC2)nc(N2CCN(C(=O)C(Cc3cc4ccccc4[nH]3)n3cc(C(N)C(C)CC)nn3)CC2)n1` (stereo unspecified), the Potency is reported as inconclusive: 39.8 µM [inhibitor, single point]. `COc1ccc(Nc2ccccc2N)cc1` was tested, and the Potency was active: 22.4 µM. In the case of `CC1CCC2C(C)C3C(CC4[C@@H]5CC=C6C[C@@H](O)CC[C@]6(C)C5CC[C@]34C)N2C1` (stereo partly specified), the Potency is reported as inconclusive: 14.1 µM [inhibitor, partial curve]. In the case of `Cc1ccc(NC(=O)N/C=C/c2ccco2)cc1`, the Potency is reported as inconclusive: 35.5 µM [inhibitor, single point]. For `Cc1ccn2c(Nc3ccc4c(c3)OCO4)c(-c3ccccn3)nc2c1`, the “activity, negative = inhibition” value was inactive: 1.82%. In the case of `COC(=O)C1=C(C(=O)OC)[C@@H]2N(C)c3ccc(OC)cc3[C@@]23C[C@@H](C(=O)OC)N(C(=O)c2cccs2)C3=N1`, the Potency is reported as inconclusive: 1 µM [inhibitor, full curve]. In the case of `O=C(/C(=N/N=C/c1ccc(O)c(O)c1O)c1ccccc1)c1ccccc1`, the “activity, negative = inhibition” value is reported as inactive: 2.87%. In the case of `O=C(CCCN1C(=O)/C(=C/c2cccs2)SC1=S)NNC(=O)c1ccc(F)cc1`, the “activity, negative = inhibition” value is reported as inactive: -17.7%. With `Cc1cc(C)nc(N/N=C/c2c[nH]c3ccccc23)n1` the Potency was inconclusive: 1 µM [inhibitor, full curve, poor fit]. In the case of `Cc1ccc(C(=O)OCC(=O)Nc2sccc2C(N)=O)cc1NC(=O)c1ccco1`, the Potency is reported as inconclusive: 0.398 µM [inhibitor, full curve, poor fit]. In the case of `C/C(CCc1ccccc1)=N\NC(=O)CCc1ccccc1`, the Potency is reported as inconclusive: 1 µM [inhibitor, full curve]. With `COc1ccc(CNC(=O)c2ccc(=O)oc2)cc1OC` the Potency was inconclusive: 0.891 µM [inhibitor, single point]. For `C#CCOCCOCCOCCNc1nc(N2CCN(C(=O)[C@H](Cc3ccc(O)cc3)n3cc([C@@H](N)C(C)CC)nn3)CC2)nc(N2CCN(C(=O)[C@H](Cc3cc4ccccc4[nH]3)n3cc([C@@H](N)CC(C)C)nn3)CC2)n1` (stereo partly specified), the Potency was inconclusive: 39.8 µM [inhibitor, single point]. `C=CCN1C(=O)/C(=C/c2ccc(O)c(OC)c2)S/C1=N/c1nccs1` was tested, and the Potency was inconclusive: 22.4 µM [inhibitor, single point]. For `CN(C1CCCCC1)S(=O)(=O)c1cccc(C(=O)OCC(=O)NC2CCCc3ccccc32)c1` (stereo unspecified), the Potency was inconclusive: 39.8 µM [inhibitor, single point]. In the case of `Cc1ccc(S(=O)(=O)N2CCCCC2)cc1NC(=O)Cn1cnnn1`, the “outcome” value is reported as “inactive”. In the case of `O=S(=O)(O)c1ccc2c(c1)-c1nc-2nc2[nH]c(nc3nc(nc4[nH]c(n1)c1ccc(S(=O)(=O)O)cc41)-c1ccc(S(=O)(=O)O)cc1-3)c1ccc(S(=O)(=O)O)cc21`, the Potency is reported as active: 0.562 µM. In the case of `O=C(O)CCNC(=O)c1ccc(NC(=O)Cc2ccc(Cl)cc2)cc1`, the Potency is reported as inconclusive: 3.16 µM [inhibitor, partial curve, poor fit]. For `O=C(N=c1ccn(-c2nc3ccccc3nc2NS(=O)(=O)c2ccc(Cl)cc2)cc1)c1cccs1`, the Potency was inconclusive: 39.8 µM [inhibitor, single point]. For `Cc1[nH][nH]c(=O)c1C(c1ccc(-c2ccc(Cl)c(Cl)c2)o1)c1c(C)[nH][nH]c1=O`, the Potency was inconclusive: 39.8 µM [inhibitor, single point]. For `CC(C)=CCCC1(C)C=Cc2c(O)c3c(c(CC=C(C)C)c2O1)OC12C(=CCCC1C(C)(C)O[C@@]2(C/C=C(\C)C(=O)O)C(=O)O)C3=O` (stereo partly specified), the “outcome” value was “inactive”. With `Cc1ccccc1-c1cncnc1N1CCNCC1` the Potency was inconclusive: 39.8 µM [inhibitor, single point]. For `CCOC(=O)c1sc(NC(=O)CSc2nnnn2-c2ccccc2)nc1C`, the “activity, negative = inhibition” value was inactive: -5.05%. For `O=C(CSc1ccc(-c2ccco2)nn1)c1cccc([N+](=O)[O-])c1`, the Potency was inconclusive: 1.41 µM [inhibitor, full curve]. For `c1ccc(-c2nc(-c3ccncc3)n[nH]2)nc1`, the “outcome” value was “inactive”. For `NC(=O)C(=CNc1nc(-c2ccc(Cl)c(Cl)c2)cs1)C(N)=O`, the Potency was active: 3.55 µM.
